# Test results reported in publication PMC7862700.
# By UniProt entry, the sequences of proteins in these tests, tags left out. Where a name states a change or a piece, a line headed by the entry shows the natural chain unless it says otherwise.
# UniProt P32519: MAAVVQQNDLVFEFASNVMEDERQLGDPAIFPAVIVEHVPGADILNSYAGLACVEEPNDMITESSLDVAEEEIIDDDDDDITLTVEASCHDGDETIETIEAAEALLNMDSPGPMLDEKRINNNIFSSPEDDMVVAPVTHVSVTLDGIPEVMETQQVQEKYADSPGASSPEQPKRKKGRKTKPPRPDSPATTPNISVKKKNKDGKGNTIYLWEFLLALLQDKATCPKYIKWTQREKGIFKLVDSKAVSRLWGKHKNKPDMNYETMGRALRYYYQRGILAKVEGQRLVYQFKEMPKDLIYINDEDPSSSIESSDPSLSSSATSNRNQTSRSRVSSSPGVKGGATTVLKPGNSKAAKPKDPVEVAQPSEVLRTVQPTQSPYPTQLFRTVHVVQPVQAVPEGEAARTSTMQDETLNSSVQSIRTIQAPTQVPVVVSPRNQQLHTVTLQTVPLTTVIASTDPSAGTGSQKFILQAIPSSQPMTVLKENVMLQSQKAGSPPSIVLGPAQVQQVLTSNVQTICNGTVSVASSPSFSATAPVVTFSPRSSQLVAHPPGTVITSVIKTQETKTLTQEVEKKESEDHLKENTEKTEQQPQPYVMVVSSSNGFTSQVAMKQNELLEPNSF
# UniProt P50549: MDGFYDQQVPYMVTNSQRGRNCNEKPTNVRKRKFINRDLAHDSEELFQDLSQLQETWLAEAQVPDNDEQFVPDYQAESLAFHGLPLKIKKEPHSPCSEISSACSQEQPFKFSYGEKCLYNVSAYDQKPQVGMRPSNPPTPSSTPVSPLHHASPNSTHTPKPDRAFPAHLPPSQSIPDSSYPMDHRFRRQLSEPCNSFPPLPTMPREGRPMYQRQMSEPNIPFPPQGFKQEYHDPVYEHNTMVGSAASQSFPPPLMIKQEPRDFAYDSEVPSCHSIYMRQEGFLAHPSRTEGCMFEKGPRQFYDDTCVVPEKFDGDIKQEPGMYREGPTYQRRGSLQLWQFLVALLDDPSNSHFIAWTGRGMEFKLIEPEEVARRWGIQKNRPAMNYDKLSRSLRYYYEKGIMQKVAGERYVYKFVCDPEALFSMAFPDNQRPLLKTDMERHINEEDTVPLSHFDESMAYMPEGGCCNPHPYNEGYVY
# Only a part is listed here, and it is no random draw. For part of these data: At the low end of the ranking the order means little. The list shows a part of the results. For part of these data: The source does not settle which construct or isoform was used.
# How the values were obtained:
# Assay in all cases: DAPPL (digital affinity profiling via proximity ligation, sequencing)
# Details in all cases: 10 mM Tris-HCl pH 7.5, 50 mM NaCl, 1 mM DTT, 4% glycerol, room temperature, 30 min; GST-TFs on glutathione beads, 16-mer random dsDNA library, 0.1% …; high values mean tight binding; double strand, one strand shown; scale: fold enrichment (6-mer frequency, TF over GST control)
# ERG = molecular target: T1, ERG (UniProt P11308)
# T1 sequence: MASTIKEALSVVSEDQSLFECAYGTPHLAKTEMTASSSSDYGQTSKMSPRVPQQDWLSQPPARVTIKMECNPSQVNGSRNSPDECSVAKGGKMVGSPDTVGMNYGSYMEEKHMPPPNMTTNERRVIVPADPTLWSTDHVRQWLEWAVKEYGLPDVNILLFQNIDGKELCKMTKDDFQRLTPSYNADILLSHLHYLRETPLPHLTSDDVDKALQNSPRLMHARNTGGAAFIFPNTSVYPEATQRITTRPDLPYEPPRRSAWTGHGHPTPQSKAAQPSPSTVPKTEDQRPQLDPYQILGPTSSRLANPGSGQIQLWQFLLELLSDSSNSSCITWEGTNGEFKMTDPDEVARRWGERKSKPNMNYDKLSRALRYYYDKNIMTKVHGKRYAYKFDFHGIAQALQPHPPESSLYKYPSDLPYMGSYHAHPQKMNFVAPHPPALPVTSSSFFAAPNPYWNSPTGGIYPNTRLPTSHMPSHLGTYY
# ELF1 = ELF1 (UniProt P32519)
# ELK4 = molecular target: T2, ELK4 (UniProt P28324-2)
# T2 sequence: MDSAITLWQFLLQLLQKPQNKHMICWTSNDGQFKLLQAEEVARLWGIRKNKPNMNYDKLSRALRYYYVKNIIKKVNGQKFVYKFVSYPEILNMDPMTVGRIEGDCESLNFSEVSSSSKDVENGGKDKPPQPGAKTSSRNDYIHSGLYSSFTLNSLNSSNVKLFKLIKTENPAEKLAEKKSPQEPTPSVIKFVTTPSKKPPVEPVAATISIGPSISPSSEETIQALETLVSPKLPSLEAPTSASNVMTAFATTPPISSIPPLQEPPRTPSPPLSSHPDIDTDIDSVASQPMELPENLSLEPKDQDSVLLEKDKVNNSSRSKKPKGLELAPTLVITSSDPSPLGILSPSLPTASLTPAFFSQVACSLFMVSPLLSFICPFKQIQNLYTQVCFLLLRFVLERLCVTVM
# ETV4 = molecular target: T3, ETV4 (UniProt P43268)
# T3 sequence: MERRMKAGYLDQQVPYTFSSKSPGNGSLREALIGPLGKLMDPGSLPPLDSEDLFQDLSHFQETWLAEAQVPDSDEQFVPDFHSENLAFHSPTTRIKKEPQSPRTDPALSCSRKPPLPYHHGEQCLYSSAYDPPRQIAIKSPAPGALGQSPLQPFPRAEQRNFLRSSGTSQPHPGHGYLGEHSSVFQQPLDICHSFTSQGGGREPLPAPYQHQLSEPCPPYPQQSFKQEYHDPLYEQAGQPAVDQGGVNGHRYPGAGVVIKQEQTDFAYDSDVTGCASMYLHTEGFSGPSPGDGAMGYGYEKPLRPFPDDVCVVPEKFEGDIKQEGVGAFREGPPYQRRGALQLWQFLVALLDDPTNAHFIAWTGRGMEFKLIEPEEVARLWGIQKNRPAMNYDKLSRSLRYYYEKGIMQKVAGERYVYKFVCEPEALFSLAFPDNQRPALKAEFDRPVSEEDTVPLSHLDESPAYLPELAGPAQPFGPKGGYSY
# ETV1 = ETV1 (UniProt P50549)
# ERF = molecular target: T4, ERF (UniProt P50548)
# T4 sequence: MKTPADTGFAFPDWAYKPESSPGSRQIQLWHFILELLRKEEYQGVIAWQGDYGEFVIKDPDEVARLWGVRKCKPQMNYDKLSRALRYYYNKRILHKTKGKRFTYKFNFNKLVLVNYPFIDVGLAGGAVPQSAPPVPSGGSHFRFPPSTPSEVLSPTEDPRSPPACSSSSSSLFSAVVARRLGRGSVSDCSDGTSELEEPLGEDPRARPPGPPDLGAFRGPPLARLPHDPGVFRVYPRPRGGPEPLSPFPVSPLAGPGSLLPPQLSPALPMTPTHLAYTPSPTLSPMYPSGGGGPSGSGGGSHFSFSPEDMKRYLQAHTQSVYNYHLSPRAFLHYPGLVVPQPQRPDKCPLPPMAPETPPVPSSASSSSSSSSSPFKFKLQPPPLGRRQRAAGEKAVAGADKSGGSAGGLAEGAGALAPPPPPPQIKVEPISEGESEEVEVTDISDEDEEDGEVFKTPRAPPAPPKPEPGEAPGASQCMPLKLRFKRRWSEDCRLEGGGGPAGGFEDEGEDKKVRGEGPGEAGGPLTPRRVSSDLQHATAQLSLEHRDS
Sequence,binding signal (ERG),binding signal (ELF1),binding signal (ELK4),binding signal (ETV4),binding signal (ETV1),binding signal (ERF)
GTGTCA,0.828,0.851,0.908,0.807,0.837,0.818
TACCAG,0.903,0.891,0.82,0.824,0.892,0.765
TCCAGG,0.816,0.791,0.752,0.796,0.866,0.87
AGGGAG,0.372,0.353,0.347,0.327,0.345,0.316
GGCCAG,0.467,0.477,0.475,0.416,0.453,0.402
GCAGGG,0.627,0.608,0.601,0.684,0.642,0.676
GTCATC,0.85,0.847,0.877,0.88,0.827,0.938
AACAGT,0.648,0.704,0.654,0.682,0.68,0.632
AGGGTC,0.87,0.877,0.962,0.866,0.855,0.936
ACGGAC,0.805,0.853,0.801,0.8,0.88,0.814
GTCATG,0.815,0.755,0.824,0.802,0.902,0.877
GATTGT,0.834,0.808,0.864,0.841,0.819,0.932
GCATCG,0.804,0.807,0.773,0.836,0.742,0.69
CCCAGT,0.67,0.622,0.658,0.656,0.614,0.672
GTAAAG,0.896,0.951,0.906,0.924,0.964,0.948
GAGGCA,0.459,0.454,0.479,0.415,0.461,0.461
CGTGGC,0.867,0.897,0.954,0.86,0.84,0.846
GTTGTG,0.913,0.894,1.07,0.921,0.77,0.814
GTGACA,0.788,0.835,0.803,0.809,0.765,0.766
GAACGG,0.628,0.549,0.637,0.615,0.645,0.567
GGTAGT,0.71,0.715,0.704,0.764,0.782,0.717
AGACCG,0.481,0.481,0.411,0.499,0.503,0.5
TCGGAA,0.566,0.521,0.496,0.523,0.571,0.553

Sequence,binding signal (ERG),binding signal (ELF1),binding signal (ELK4),binding signal (ETV4),binding signal (ETV1),binding signal (ERF)
TCGTAA,0.925,0.892,0.76,0.925,0.96,0.984
TGGACG,0.832,0.818,0.861,0.852,0.805,0.796
CAAGGC,0.898,0.873,0.85,0.831,0.82,0.935
GGGGTT,0.78,0.856,0.905,0.87,0.912,0.85
CCGGGG,0.769,0.808,0.722,0.762,0.842,0.791
CTAGAG,0.821,0.865,0.914,0.856,0.869,0.838
AGTCGC,0.542,0.523,0.524,0.503,0.504,0.453
GTCGCG,0.701,0.671,0.616,0.578,0.694,0.632
TGGAGG,0.492,0.426,0.488,0.441,0.485,0.514
AGGGGT,0.791,0.795,0.819,0.796,0.805,0.837
GCCGTG,0.241,0.221,0.265,0.242,0.238,0.253
GAGACC,0.212,0.229,0.181,0.225,0.214,0.212
CGAGTC,0.518,0.508,0.464,0.551,0.511,0.52
CGTAGG,0.672,0.651,0.615,0.619,0.625,0.631
AGAGTA,0.733,0.75,0.744,0.7,0.745,0.766
GAGCAG,0.644,0.636,0.547,0.603,0.674,0.64
TGAGAT,0.713,0.698,0.822,0.593,0.698,0.765
CAGGTG,0.543,0.56,0.603,0.547,0.583,0.581
TGGAGT,0.511,0.5,0.535,0.54,0.5,0.48
AGACTA,0.805,0.811,0.682,0.801,0.796,0.82
AGGCGA,0.542,0.526,0.493,0.471,0.577,0.501
CACGAG,0.806,0.897,0.81,0.824,0.823,0.859
GGGGGA,0.668,0.577,0.536,0.544,0.584,0.628

# At a glance, part of the list above:
Sequence,binding signal (ERG),binding signal (ELF1),binding signal (ELK4),binding signal (ETV4),binding signal (ETV1),binding signal (ERF)
AGGGGT,0.791,0.795,0.819,0.796,0.805,0.837
GCCGTG,0.241,0.221,0.265,0.242,0.238,0.253
